PubChem BioAssay AID1259254, NCATS, 2017
In all, the deposit lists about 59,000 reagents; below is an unselected part. About 1,550 of them (2.6%) count as active. 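G2 share is only a proxy for re-replication; each gene was hit by three separate siRNAs, and active genes were retested.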 The numbers tell different reagents against one gene apart. Not all columns of the deposit are shown. No sequences are given here. The record does not give: the amount of reagent.

Screen: 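Gene knock-downs that lead to re-replication, shown by excess G2 DNA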 (primary screen)
System: human HCT116 colorectal cancer cells
Reagent: single siRNA against human genes
Time to read-out: 3 days
Read-out: 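Nuclei stained with Hoechst and imaged; cell-cycle phase assigned by DNA content; G2 share scaled per plate, non-targeting siRNA 0%, GMNN siRNA 100%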
Reading the numbers: G2 robust z-score and G2 cells, % of GMNN control: higher = more G2 cells, more excess DNA replication
Active means: 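An siRNA counts as active if its G2 robust z-score lies at least 5 MADs above the screen median; here such calls match roughly 38% of GMNN control or more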

The first 2 entries as a preview:
| gene | reagent | G2 robust z-score | G2 cells, % of GMNN control | Call |
| --- | --- | --- | --- | --- |
| RARS1 | 1 | 0.00725 | 3.02 | inactive |
| RARS1 | 2 | -0.956 | -3.76 | inactive |

The list itself, from the start:
| gene | reagent | G2 robust z-score | G2 cells, % of GMNN control | Call |
| --- | --- | --- | --- | --- |
| RARS1 | 1 | 0.00725 | 3.02 | inactive |
| RARS1 | 2 | -0.956 | -3.76 | inactive |
| RARS1 | 3 | -0.659 | -1.67 | inactive |
| TSLIG3A | 1 | -0.775 | -2.48 | inactive |
| TSLIG3A | 2 | 0.119 | 3.81 | inactive |
| TSLIG3A | 3 | -0.416 | 0.044 | inactive |
| LEPR | 1 | -0.559 | -0.968 | inactive |
| LEPR | 2 | 0.123 | 3.84 | inactive |
| LEPR | 3 | -1.24 | -5.73 | inactive |
| LRRC41 | 1 | -1.35 | -6.52 | inactive |
| LRRC41 | 2 | -0.423 | -0.00537 | inactive |
| LRRC41 | 3 | -1.27 | -5.96 | inactive |
| UGT2B7 | 1 | -0.539 | -0.824 | inactive |
| UGT2B7 | 2 | -0.0859 | 2.36 | inactive |
| UGT2B7 | 3 | -0.0539 | 2.59 | inactive |
| BAZ2B-AS1 | 1 | -0.105 | 2.23 | inactive |
| BAZ2B-AS1 | 2 | -0.943 | -3.67 | inactive |
| BAZ2B-AS1 | 3 | -1.02 | -4.18 | inactive |
| PTCHD3 | 1 | -0.112 | 2.18 | inactive |
| PTCHD3 | 2 | -0.362 | 0.422 | inactive |
| PTCHD3 | 3 | -0.463 | -0.292 | inactive |
| ZP1 | 1 | -1.06 | -4.49 | inactive |
| ZP1 | 2 | 0.506 | 6.53 | inactive |
| ZP1 | 3 | 0.898 | 9.29 | inactive |
| KIF18B | 1 | 0.868 | 9.07 | inactive |
| KIF18B | 2 | 2.76 | 22.4 | inactive |
| KIF18B | 3 | 0.809 | 8.66 | inactive |
| TMEM109 | 1 | 0.516 | 6.6 | inactive |
| TMEM109 | 2 | -0.437 | -0.106 | inactive |
| TMEM109 | 3 | 0.318 | 5.21 | inactive |
| KDM2B | 1 | 0.715 | 8 | inactive |
| KDM2B | 2 | -0.696 | -1.93 | inactive |
| KDM2B | 3 | -0.271 | 1.06 | inactive |
| ATL2 | 1 | -0.182 | 1.69 | inactive |
| ATL2 | 2 | -0.753 | -2.33 | inactive |
| ATL2 | 3 | -1.07 | -4.59 | inactive |
| INPP5A | 1 | -0.0133 | 2.87 | inactive |
| INPP5A | 2 | -0.344 | 0.546 | inactive |
| INPP5A | 3 | -1.03 | -4.25 | inactive |
| NSRP1 | 1 | 0.348 | 5.41 | inactive |
| NSRP1 | 2 | 0.403 | 5.8 | inactive |
| NSRP1 | 3 | -0.568 | -1.03 | inactive |
| SPO11 | 1 | -0.789 | -2.58 | inactive |
| SPO11 | 2 | 4.46 | 34.3 | inactive |
| SPO11 | 3 | -0.897 | -3.34 | inactive |
| DNAJC17 | 1 | 0.804 | 8.62 | inactive |
| DNAJC17 | 2 | -0.702 | -1.97 | inactive |
| DNAJC17 | 3 | -0.759 | -2.37 | inactive |
